Results taken from US20260049103A1 (WINKEY TECHNOLOGY USA INC, priority 2023, published 2026).
Non-standard residues stand in square brackets, D forms with d. *: point of attachment. Palmitoyl = CCCCCCCCCCCCCCCC(=O)*; Nle = CCCC[C@H](N)C(=O)O

Assay: general procedure: Fmoc solid-phase peptide synthesis; Amide Resin (substitution degree 1.72 mmol/g, 100-200 mesh) with Fmoc-Linker; Wang Resin; HOBt/DIC
Settings: whole synthesis, scale of the general procedure 9 g of Amide Resin, 10 g of Wang Resin

| Substance | final purity (method not given) [%] |
| --- | --- |
| Palmitoyl-G[Nle]KLY-NH2 | 97.16 |
| Palmitoyl-G[Nle]RLY-NH2 | 98.23 |
| Palmitoyl-KVKLY-NH2 | 96.55 |
| Palmitoyl-KVKLY-OH | 97.615 |
| Palmitoyl-VKLYGS-NH2 | 97.08 |
